Laboratory results taken from article PMC4320536.
Results are given in words; binding and its absence hold for the method and conditions named. Binding seen in cells or lysates may run through a third protein. A yes stands for co-enrichment or nearness to the bait. Other partners may have been found. Tags and fused reporters may be left off the sequences shown.

Target: Leishmania EIF3E (native eIF3e orthologue of L. infantum) (L. infantum (endogenous in promastigotes))
Assay: affinity purification with mass spectrometry; IP from L. infantum promastigote cytoplasmic extract with affinity purified anti-EIF3E antibodies on protein A sepharose; pre-immune serum as control; eluted proteins analysed by ESI MS/MS, three independent experiments

B1: G6PD: Glucose-6-Phosphate 1-Dehydrogenase (Leishmania) (enzyme, UniProt A2CIJ8 1-562)
chain: MSEEQSHADQDAYVADVDGILDVLRAQVLERKPDDIFQFISKSALSLQKDRGAESCDRINCKVKDEQKSRALTIIVFGASGDLAKKKTFPALFDLYCGGLLPPEVNIIGYARTKVDDVEKWKHETLMKYFSNLSERGCHAEDFLKHISYFCGAYDSVDDFKRLDAVIREKENAFKGPEKGGNRLFYLALPPSVFASVCESIHKGAMPQEVGGWVRVIIEKPFGRDTKSSAELSQALEPFFDESQLYRIDHYLGKEMVQNIITTRFANRIFSAVWNASNIACVQITFKETIGTEGRGGYFDSIGIIRDVMQNHLTQILALLAMEKPRSLDAECIRDEKVSVLKCIEPITKENCVLGQYTASADGSIPGYLEDVTVPEGSTCPTFAVMRLNINNDRWAGVPFILKAGKAVEQKYVAIRIQFRDEVHPYGEATQRNELVIRAQPSEAMYVKITTKVPGLSGDLRQTHQTELDLTYHTRYDVRLPDAYESLINDALLGNSTNFVRKDELDVAWRIFTPLLHQIDSGEIKPIPYQAGTRGPKEADEFIANNGFKHQKGYHWLPSNKL
How did the binding turn out when B1 was run?
The binding was “binds”.
